Test [1] deals with 天然Stx2 (natural Shiga toxin II of enterohaemorrhagic E. coli O157:H7) (肠出血性大肠杆菌(EHEC) O157:H7) (UniProt P09385). Briefly: Western blot on natural Stx2. A general note: In western blotting, separated proteins are transferred to a membrane and probed.
The target is the same in test [2]. Briefly: indirect ELISA on coated natural Stx2 (2 ug/ml), antibody 0.2-12.8 ug/ml.

This is an account of results in CN101357942A.

Results are given in words; binding and its absence hold for the method and conditions named. Some entries that bind do so weakly or less than the wild type.

B1: 1F2单克隆抗体 (monoclonal antibody 1F2, from hybridoma CCTCC C200822) (antibody, V domains shown)
VH: SGGGLVQPGGSLKLSCAASGFTFSVYGMSWVRQTPDKRLELVATINNNGGSTYYPDSVKGRFTISRDNAKNTLYLQMSSLKSEDTAMYYCASIPLFGNYWGQGTSVTVSS
VL: MTQTPLSLPVSLGDQASISCRSSQSIVHSNGNTYLEWYLQKPGQSPKFLIYKVSRFSGVPDRFSGSGSGTDFTLKISRVEAEDLGVYYCFQGSHVPWTFGGGTKLEIKR
As for B1, the binding entry in test [1] and in test [2] was “binds” in each case.
